Source: publication PMC5576485
Results are given in words; binding and its absence hold for the method and conditions named. In cells and extracts the contact can be indirect. Some binding calls cover weakened binding; strength is not graded here. Sequences can lack the tags named with a protein.

Protein sequences, listed by entry. Tags and fused reporters are not part of them.
UniProt E9PZZ1: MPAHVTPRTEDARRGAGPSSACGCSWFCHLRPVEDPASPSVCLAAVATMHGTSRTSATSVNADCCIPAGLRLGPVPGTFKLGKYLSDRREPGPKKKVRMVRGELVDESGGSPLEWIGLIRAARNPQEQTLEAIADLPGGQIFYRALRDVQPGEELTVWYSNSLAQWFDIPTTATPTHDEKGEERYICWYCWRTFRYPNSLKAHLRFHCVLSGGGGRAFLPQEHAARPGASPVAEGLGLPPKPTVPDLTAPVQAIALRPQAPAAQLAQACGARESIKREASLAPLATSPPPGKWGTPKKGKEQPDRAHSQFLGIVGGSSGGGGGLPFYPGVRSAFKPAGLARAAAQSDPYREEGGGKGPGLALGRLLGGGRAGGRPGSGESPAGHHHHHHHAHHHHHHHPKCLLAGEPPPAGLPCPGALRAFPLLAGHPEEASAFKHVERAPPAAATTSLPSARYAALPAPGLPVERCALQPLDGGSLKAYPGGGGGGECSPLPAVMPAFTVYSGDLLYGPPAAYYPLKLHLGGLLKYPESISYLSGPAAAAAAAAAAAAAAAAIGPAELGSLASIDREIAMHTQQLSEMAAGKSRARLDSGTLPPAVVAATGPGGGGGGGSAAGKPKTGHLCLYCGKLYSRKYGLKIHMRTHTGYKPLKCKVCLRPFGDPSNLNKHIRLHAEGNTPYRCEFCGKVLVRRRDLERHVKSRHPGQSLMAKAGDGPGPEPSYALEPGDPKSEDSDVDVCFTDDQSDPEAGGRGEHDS

Target: FLAG-tagged PRDM13 (UniProt E9PZZ1)
Test: co-IP; HEK293 cells transfected with PRDM13^FLAG and the other factor, total cell lysate in IP lysis buffer after 48 hr; A/G beads conjugated with anti-FLAG antibodies; Western blots with anti-cMYC, anti-FLAG, anti-NEUROG1 or anti-NEUROG2

binding	Binder
binds	MYC-tagged ASCL1 (protein, UniProt Q02067 1-231) MESSGKMESGAGQQPQPPQPFLPPAACFFATAAAAAAAAAAAAQSAQQQQPQAPPQQAPQLSPVADSQPSGGGHKSAAKQVKRQRSSSPELMRCKRRLNFSGFGYSLPQQQPAAVARRNERERNRVKLVNLGFATLREHVPNGAANKKMSKVETLRSAVEYIRALQQLLDEHDAVSAAFQAGVLSPTISPNYSNDLNSMAGSPVSSYSSDEGSYDPLSPEEQELLDFTNWF
binds	MYC-tagged PTF1A (protein, UniProt Q9QX98 1-324) MDAVLLEHFPGGLDTFPSPYFDEEDFFTDQSSRDPLEDSDELLGDEQAEVEFLSHQLHEYCYRDGACLLLQPAPSAAPHALAPPPLGDPGEPEDNVSYCCDAGAPLAAFPYSPGSPPSCLAYPCAAVLSPGARLGGLNGAAAAAAARRRRRVRSEAELQQLRQAANVRERRRMQSINDAFEGLRSHIPTLPYEKRLSKVDTLRLAIGYINFLSELVQADLPLRGSGAGGCGGPGGSRHLGEDSPGNQAQKVIICHRGTRSPSPSDPDYGLPPLAGHSLSWTDEKQLKEQNIIRTAKVWTPEDPRKLNSKSFDNIENEPPFEFVS
binds	MYC-tagged NEUROG1 (protein, UniProt P70660 1-244) MPAPLETCISDLDCSSSNSSSDLSSFLTDEEDCARLQPLASTSGLSVPARRSAPALSGASNVPGAQDEEQERRRRRGRARVRSEALLHSLRRSRRVKANDRERNRMHNLNAALDALRSVLPSFPDDTKLTKIETLRFAYNYIWALAETLRLADQGLPGGSARERLLPPQCVPCLPGPPSPASDTESWGSGAAASPCATVASPLSDPSSPSASEDFTYGPGDPLFSFPGLPKDLLHTTPCFIPYH
